# Results from the supplement of paper PMC4604168 (melanoma cell lines).
# This is one part of the list. Many values rest on one well or one pass, so single values are uncertain.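 Cells were imaged in 1,536-well plates, and nuclei stained with an antibody against cleaved PARP were counted against all DNA-stained nuclei to give the apoptosis fraction. Screening doses were chosen to leave most cells alive, and resting and induced cleaved-PARP levels differ strongly between cell lines.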
# Tests used:
# Assay in all cases: cleaved PARP positive nuclei fraction relative to DMSO control; melanoma cells; higher = more apoptosis
# Details in all cases: library dose: low library concentration; 72 h
# MZ2-MEL = tested on: MZ2-MEL
# MeWo = tested on: MeWo
# RPMI7951 = tested on: RPMI7951
# RVH-421 = tested on: RVH-421
# SkMel28 = tested on: SkMel28
# SkMel2 = tested on: SkMel2
# SkMel30 = tested on: SkMel30
# SkMel5 = tested on: SkMel5
# UACC257 = tested on: UACC257
# UACC62 = tested on: UACC62
SMILES,cleaved PARP positive nuclei fraction (MZ2-MEL) [%],cleaved PARP positive nuclei fraction (MeWo) [%],cleaved PARP positive nuclei fraction (RPMI7951) [%],cleaved PARP positive nuclei fraction (RVH-421) [%],cleaved PARP positive nuclei fraction (SkMel28) [%],cleaved PARP positive nuclei fraction (SkMel2) [%],cleaved PARP positive nuclei fraction (SkMel30) [%],cleaved PARP positive nuclei fraction (SkMel5) [%],cleaved PARP positive nuclei fraction (UACC257) [%],cleaved PARP positive nuclei fraction (UACC62) [%]
"NC1(c2ccc(-c3nc4ccn5c(=O)[nH]nc5c4cc3-c3ccccc3)cc2)CCC1 + NC(=O)Nc1cc(-c2cccc(F)c2)sc1C(=O)N[C@H]1CCCNC1 [AZD7762] (first compound 0.4 µM, partner dose 0.02 µM)",59.5,98.2,67.9,112,116,93.1,73,94.9,34.8,81.8
"CS(=O)(=O)c1ccc(C(=O)Nc2ccc(Cl)c(-c3ccccn3)c2)c(Cl)c1 [vismodegib] + CO[C@@H]1[C@H](N(C)C(=O)c2ccccc2)C[C@H]2O[C@]1(C)n1c3ccccc3c3c4c(c5c6ccccc6n2c5c31)C(=O)NC4 [Midostaurin] (first compound 1 µM, partner dose 0.08 µM)",49.2,122,101,365,71.7,61.8,64,32.2,127,147
"C[C@@H](N)c1ccc(C(=O)Nc2ccnc3[nH]ccc23)cc1 + COc1cc(N2CCC(N3CCN(C)CC3)CC2)ccc1Nc1ncc(Cl)c(Nc2ccccc2S(=O)(=O)C(C)C)n1 [NVP-TAE684] (first compound 0.4 µM, partner dose 0.08 µM)",374,97.7,85.1,140,189,110,67,47,66.7,76.2
"C[C@]1(O)C[C@@H](c2nc(-c3ccc4ccc(-c5ccccc5)nc4c3)c3c(N)nccn32)C1 + O=C(O)C(=O)Nc1sc2c(c1C(=O)O)CCNC2 [TCS401] (first compound 0.4 µM, partner dose 1.66667 µM)",305,94.6,229,45.6,50.5,118,290,107,106,689
"C[C@@H](N)c1ccc(C(=O)Nc2ccnc3[nH]ccc23)cc1 + Cn1cc(/C=C2\C(=O)Nc3cccnc32)c2ccccc21 [GW441756] (first compound 0.4 µM, partner dose 0.4 µM)",78.9,152,58.2,84.6,248,77.3,117,230,193,151
"CC(=O)O[C@@]12CO[C@@H]1C[C@H](O)[C@@]1(C)C(=O)[C@H](O)C3=C(C)[C@@H](OC(=O)[C@H](O)[C@@H](NC(=O)OC(C)(C)C)c4ccccc4)C[C@@](O)([C@@H](OC(=O)c4ccccc4)[C@H]21)C3(C)C [Docetaxel] + CCCCCCCCCCCC1=C(O)C(=O)C=C(O)C1=O [Embelin] (first compound 0.0001 µM, partner dose 1.2 µM)",288,410,385,125,631,542,210,191,480,456
"C[C@]1(O)C[C@@H](c2nc(-c3ccc4ccc(-c5ccccc5)nc4c3)c3c(N)nccn32)C1 + CCCCCCCCCCCC1=C(O)C(=O)C=C(O)C1=O [Embelin] (first compound 0.4 µM, partner dose 1.2 µM)",101,157,67.4,29.6,98.1,55.6,413,88.1,158,123
"NC(=O)c1ccc(N(C(N)=O)c2c(F)cccc2F)nc1-c1ccc(F)cc1F + c1cc(-c2cnn3cc(-c4ccc(OCCN5CCCCC5)cc4)cnc23)ccn1 [Dorsomorphin] (first compound 0.4 µM, partner dose 0.4 µM)",152,92,307,91.5,58.2,106,100,65.3,101,67.4
"C[C@@H](N)c1ccc(C(=O)Nc2ccnc3[nH]ccc23)cc1 + COC(=O)c1sccc1S(=O)(=O)Nc1ccc(Nc2ccccc2)cc1OC [GSK0660] (first compound 0.4 µM, partner dose 1 µM)",199,126,39,341,177,73.3,116,189,78.7,176
"COc1ccc(C2=N[C@@H](c3ccc(Cl)cc3)[C@@H](c3ccc(Cl)cc3)N2C(=O)N2CCNC(=O)C2)c(OC(C)C)c1 [Nutlin-3] + CN(C)S(=O)(=O)c1ccc2c(c1)/C(=C/c1cc3c([nH]1)CCCC3)C(=O)N2 [SU6656] (first compound 0.1 µM, partner dose 0.4 µM)",216,55,160,45.2,182,50.9,62.5,74.4,79.7,80.7
"C[C@]1(O)C[C@@H](c2nc(-c3ccc4ccc(-c5ccccc5)nc4c3)c3c(N)nccn32)C1 + Cc1cc([N+](=O)[O-])ccc1NS(=O)(=O)c1cc(Cl)ccc1Cl [FH535] (first compound 0.4 µM, partner dose 1 µM)",91.1,89.9,146,90.3,97.3,25.4,49.3,106,24.1,1170
"COc1ccc(C2=N[C@@H](c3ccc(Cl)cc3)[C@@H](c3ccc(Cl)cc3)N2C(=O)N2CCNC(=O)C2)c(OC(C)C)c1 [Nutlin-3] + CCc1ccc(CCOc2ccc(CC3SC(=O)NC3=O)cc2)nc1 [pioglitazone] (first compound 0.1 µM, partner dose 2 µM)",75.1,118,62.1,124,45.5,109,42.9,176,74.7,107
"CN(c1ncccc1CNc1nc(Nc2ccc3c(c2)CC(=O)N3)ncc1C(F)(F)F)S(C)(=O)=O + COc1ccc(COc2ccc(Cc3cnc(N)nc3N)cc2OC)cc1 [GW2580] (first compound 0.08 µM, partner dose 1 µM)",126,72.4,92.2,68.4,139,56.3,123,194,278,159
"CS(=O)(=O)c1ccc(C(=O)Nc2ccc(Cl)c(-c3ccccn3)c2)c(Cl)c1 [vismodegib] + O=c1cc(-c2cccc3c2Sc2ccccc2S3)oc(N2CCOCC2)c1 [KU55933] (first compound 1 µM, partner dose 1 µM)",176,187,346,95.2,109,23.2,23.1,216,118,263
"CC1(C)CCC(c2ccc(Cl)cc2)=C(CN2CCN(c3ccc(C(=O)NS(=O)(=O)c4ccc(N[C@H](CCN5CCOCC5)CSc5ccccc5)c(S(=O)(=O)C(F)(F)F)c4)cc3)CC2)C1 + CN(NC(=O)CC(=O)NN(C)C(=S)c1ccccc1)C(=S)c1ccccc1 [STA4783] (first compound 0.4 µM, partner dose 0.006 µM)",240,59.7,113,21.1,140,123,175,281,211,98.8
"Cn1cnc2c(F)c(Nc3ccc(Br)cc3Cl)c(C(=O)NOCCO)cc21 [selumetinib] + CC(C)CCN1c2nc(Nc3cc(F)c(O)c(F)c3)ncc2N(C)C(=O)C1C [BID1870] (first compound 0.015 µM, partner dose 0.2 µM)",146,154,29.5,110,183,198,37.4,143,129,258
"CCN(CC)CCNC(=O)c1c(C)[nH]c(/C=C2\C(=O)Nc3ccc(F)cc32)c1C [sunitinib] + COc1ccc2c(c1)CCC1C2CCC2(C)C(NCCCCCCN3C(=O)C=CC3=O)CCC12 [U73122] (first compound 0.4 µM, partner dose 0.4 µM)",87,93.6,99.3,48.2,104,51.3,44,67.1,91.7,143
"CC1(C)CCC(c2ccc(Cl)cc2)=C(CN2CCN(c3ccc(C(=O)NS(=O)(=O)c4ccc(N[C@H](CCN5CCOCC5)CSc5ccccc5)c(S(=O)(=O)C(F)(F)F)c4)cc3)CC2)C1 + N#Cc1c(O)c2c(-c3ccc(-c4ccccc4O)cc3)csc2[nH]c1=O [A769662] (first compound 0.4 µM, partner dose 2 µM)",203,365,199,131,94.9,67.9,75.4,117,171,118
"CCN(CC)CCNC(=O)c1c(C)[nH]c(/C=C2\C(=O)Nc3ccc(F)cc32)c1C [sunitinib] + COC(=O)c1sccc1S(=O)(=O)Nc1ccc(Nc2ccccc2)cc1OC [GSK0660] (first compound 0.4 µM, partner dose 1 µM)",73.7,136,193,118,136,27.5,75.4,286,89.4,178
"CC(=O)O[C@@]12CO[C@@H]1C[C@H](O)[C@@]1(C)C(=O)[C@H](O)C3=C(C)[C@@H](OC(=O)[C@H](O)[C@@H](NC(=O)OC(C)(C)C)c4ccccc4)C[C@@](O)([C@@H](OC(=O)c4ccccc4)[C@H]21)C3(C)C [Docetaxel] + C[C@@H]1CCN(C(=O)CC#N)C[C@@H]1N(C)c1ncnc2[nH]ccc12 [CP690550] (first compound 0.0001 µM, partner dose 1 µM)",1040,248,82.8,333,282,711,717,255,1440,488
"NC(=O)c1ccc(N(C(N)=O)c2c(F)cccc2F)nc1-c1ccc(F)cc1F + Cc1ccc(NC(=O)c2cccc(N(C)C)c2)cc1NC(=O)c1ccc(O)cc1 [ZM336372] (first compound 0.4 µM, partner dose 2 µM)",242,71.3,113,29.2,205,44,75.5,133,112,53.1

# 6 successive records out of the list so far, for reference:
SMILES,cleaved PARP positive nuclei fraction (MZ2-MEL) [%],cleaved PARP positive nuclei fraction (MeWo) [%],cleaved PARP positive nuclei fraction (RPMI7951) [%],cleaved PARP positive nuclei fraction (RVH-421) [%],cleaved PARP positive nuclei fraction (SkMel28) [%],cleaved PARP positive nuclei fraction (SkMel2) [%],cleaved PARP positive nuclei fraction (SkMel30) [%],cleaved PARP positive nuclei fraction (SkMel5) [%],cleaved PARP positive nuclei fraction (UACC257) [%],cleaved PARP positive nuclei fraction (UACC62) [%]
"C[C@]1(O)C[C@@H](c2nc(-c3ccc4ccc(-c5ccccc5)nc4c3)c3c(N)nccn32)C1 + Cc1cc([N+](=O)[O-])ccc1NS(=O)(=O)c1cc(Cl)ccc1Cl [FH535] (first compound 0.4 µM, partner dose 1 µM)",91.1,89.9,146,90.3,97.3,25.4,49.3,106,24.1,1170
"COc1ccc(C2=N[C@@H](c3ccc(Cl)cc3)[C@@H](c3ccc(Cl)cc3)N2C(=O)N2CCNC(=O)C2)c(OC(C)C)c1 [Nutlin-3] + CCc1ccc(CCOc2ccc(CC3SC(=O)NC3=O)cc2)nc1 [pioglitazone] (first compound 0.1 µM, partner dose 2 µM)",75.1,118,62.1,124,45.5,109,42.9,176,74.7,107
"CN(c1ncccc1CNc1nc(Nc2ccc3c(c2)CC(=O)N3)ncc1C(F)(F)F)S(C)(=O)=O + COc1ccc(COc2ccc(Cc3cnc(N)nc3N)cc2OC)cc1 [GW2580] (first compound 0.08 µM, partner dose 1 µM)",126,72.4,92.2,68.4,139,56.3,123,194,278,159
"CS(=O)(=O)c1ccc(C(=O)Nc2ccc(Cl)c(-c3ccccn3)c2)c(Cl)c1 [vismodegib] + O=c1cc(-c2cccc3c2Sc2ccccc2S3)oc(N2CCOCC2)c1 [KU55933] (first compound 1 µM, partner dose 1 µM)",176,187,346,95.2,109,23.2,23.1,216,118,263
"CC1(C)CCC(c2ccc(Cl)cc2)=C(CN2CCN(c3ccc(C(=O)NS(=O)(=O)c4ccc(N[C@H](CCN5CCOCC5)CSc5ccccc5)c(S(=O)(=O)C(F)(F)F)c4)cc3)CC2)C1 + CN(NC(=O)CC(=O)NN(C)C(=S)c1ccccc1)C(=S)c1ccccc1 [STA4783] (first compound 0.4 µM, partner dose 0.006 µM)",240,59.7,113,21.1,140,123,175,281,211,98.8
"Cn1cnc2c(F)c(Nc3ccc(Br)cc3Cl)c(C(=O)NOCCO)cc21 [selumetinib] + CC(C)CCN1c2nc(Nc3cc(F)c(O)c(F)c3)ncc2N(C)C(=O)C1C [BID1870] (first compound 0.015 µM, partner dose 0.2 µM)",146,154,29.5,110,183,198,37.4,143,129,258
